Values quoted from earlier work in patent US6455286B1, “Psoralens for pathogen inactivation” (Cerus Corporation, priority 1997, dated 2002).
At least one compound was matched to its structure with a doubt left.

Tested on: DNA
Conditions: photoreaction with DNA; Isaacs et al. 1984; cited from earlier work

SMILES: Cc1oc2c(C)c3oc(=O)cc(C)c3cc2c1CN [AMT, 4′-aminomethyl-4,5′,8-trimethylpsoralen]
- Adducts per DNA base pairs: up to 1 AMT adduct per 3.5 DNA base pairs
